{"source": "paper PMC3607609", "about": "(PLoS ONE, 2013)", "key": {"other Cav subtypes": {"system": "other Cav subtypes", "details": "cited from earlier work"}, "[1]": {"system": "resistant KCl-evoked Ca^2+ responses in SH-SY5Y cells", "assay_type": "cell-based, human", "details": "in presence of CVID and nifedipine; agatoxins and SNX 482 up to 10 µM, mibefradil 30 µM"}}}
{"smiles": "COC(=O)C1=C(C)NC(C)=C(C(=O)OC)C1c1ccccc1[N+](=O)[O-]", "note": "[nifedipine]", "values": [{"measurement": "Effect on other Cav subtypes (in words)", "setting": "other Cav subtypes", "value": "does not affect responses of other Cav subtypes"}, {"measurement": "Effect on resistant KCl-evoked Ca2+ responses (in words)", "setting": "[1]", "value": "not blocked"}]}
